In PMC7373794:
These are yes or no findings as the source states them, for the method shown. Binding seen in cells or lysates may run through a third protein. Some entries that bind do so weakly or less than the wild type. Tags and fused reporters may be left off the sequences shown.

Assays:
[1] = molecular target: T1, ALA10-YFP Cter domain (Arabidopsis thaliana) (UniProt Q9LI83); assay: split reporter; BiFC in transfected Arabidopsis leaf protoplasts; both proteins fused in C-ter with complementary halves of YFP; confocal microscopy 24 to 48 h after transfection, emission spectra recorded
T1 sequence: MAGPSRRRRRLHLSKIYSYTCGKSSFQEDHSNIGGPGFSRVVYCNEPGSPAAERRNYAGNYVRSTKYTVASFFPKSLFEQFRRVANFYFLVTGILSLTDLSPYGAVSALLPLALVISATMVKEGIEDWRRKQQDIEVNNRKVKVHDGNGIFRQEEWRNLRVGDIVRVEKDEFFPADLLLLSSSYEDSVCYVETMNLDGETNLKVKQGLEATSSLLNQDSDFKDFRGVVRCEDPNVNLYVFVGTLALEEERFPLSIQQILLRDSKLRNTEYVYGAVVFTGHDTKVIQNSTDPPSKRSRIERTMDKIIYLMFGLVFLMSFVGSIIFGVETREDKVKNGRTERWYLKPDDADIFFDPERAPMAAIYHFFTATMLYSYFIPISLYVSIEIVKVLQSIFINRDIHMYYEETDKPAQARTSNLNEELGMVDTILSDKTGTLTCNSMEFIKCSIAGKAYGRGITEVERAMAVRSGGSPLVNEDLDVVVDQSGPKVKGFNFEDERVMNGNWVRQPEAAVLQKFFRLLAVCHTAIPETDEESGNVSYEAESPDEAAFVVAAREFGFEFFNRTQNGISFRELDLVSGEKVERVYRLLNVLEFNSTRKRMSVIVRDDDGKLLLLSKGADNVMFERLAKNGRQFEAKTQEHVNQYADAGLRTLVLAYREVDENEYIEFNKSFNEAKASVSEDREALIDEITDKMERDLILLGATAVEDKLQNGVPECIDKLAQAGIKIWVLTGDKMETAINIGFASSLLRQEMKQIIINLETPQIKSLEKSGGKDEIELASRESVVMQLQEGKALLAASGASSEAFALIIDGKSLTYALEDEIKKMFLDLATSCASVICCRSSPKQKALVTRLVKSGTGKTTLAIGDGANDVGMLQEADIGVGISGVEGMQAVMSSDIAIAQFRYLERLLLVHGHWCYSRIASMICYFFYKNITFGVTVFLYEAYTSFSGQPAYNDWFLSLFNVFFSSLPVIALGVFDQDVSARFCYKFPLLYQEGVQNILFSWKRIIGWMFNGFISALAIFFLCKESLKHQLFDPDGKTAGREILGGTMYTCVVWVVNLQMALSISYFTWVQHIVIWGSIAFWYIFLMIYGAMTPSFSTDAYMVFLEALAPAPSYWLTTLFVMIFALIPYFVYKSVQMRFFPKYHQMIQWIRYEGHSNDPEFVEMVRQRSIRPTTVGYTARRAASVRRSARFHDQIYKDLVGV

[2] = molecular target: T2, ALA10 fused in C-ter with the YFP Nter half (Arabidopsis thaliana) (UniProt Q9LI83); assay: as above
T2 sequence: T1 sequence

B1: PUB11-YFP Nter domain (protein, UniProt Q8GUG9 1-612)
chain: MAGGIVSPASLLDLIADIVEIPLNTGMFKKDCADLTRRVCLLTHLLEEIRDSTPIDSAASSSSENDWWSDLVVGLQAAKRLLSTARFQARDSSDGAAKRISFQFQCVTWKLEKALSNLPYDLYDISDEVGEQVELARSQLRRAMQRYGSLNSNKFSSALSEPMERDGFSNVIKIKAEEKLESVSETLHFGEEEEKQSSPPLRRSSSISLAYYLSKDADTDRLDKMVNKNTDESKKSDKLTIPVDFLCPVSLELMKDPVIVATGQTYERAYIQRWIDCGNLTCPKTQQKLENFTLTPNYVLRSLISRWCAEHNIEQPAGYINGRTKNSGDMSVIRALVQRLSSRSTEDRRNAVSEIRSLSKRSTDNRILIAEAGAIPVLVNLLTSEDVATQENAITCVLNLSIYENNKELIMFAGAVTSIVQVLRAGTMEARENAAATLFSLSLADENKIIIGGSGAIPALVDLLENGTPRGKKDAATALFNLCIYHGNKGRAVRAGIVTALVKMLSDSTRHRMVDEALTILSVLANNQDAKSAIVKANTLPALIGILQTDQTRNRENAAAILLSLCKRDTEKLITIGRLGAVVPLMDLSKNGTERGKRKAISLLELLRKACQ
With B1 the binding [1] was “binds”.

B2: PUB11 fused in C-ter with the YFP Cter half (protein, UniProt Q8GUG9 1-612)
chain: B1 chain
B2 was tested, and the binding [2] was “binds”.
